From the supplement of paper PMC7666118
The list shows a part of the results.

Protein sequences, listed by entry. Tags and fused reporters are not part of them. Lines headed by an entry give the natural chain unless they say otherwise; changes in a name come on top.
UniProt P35612: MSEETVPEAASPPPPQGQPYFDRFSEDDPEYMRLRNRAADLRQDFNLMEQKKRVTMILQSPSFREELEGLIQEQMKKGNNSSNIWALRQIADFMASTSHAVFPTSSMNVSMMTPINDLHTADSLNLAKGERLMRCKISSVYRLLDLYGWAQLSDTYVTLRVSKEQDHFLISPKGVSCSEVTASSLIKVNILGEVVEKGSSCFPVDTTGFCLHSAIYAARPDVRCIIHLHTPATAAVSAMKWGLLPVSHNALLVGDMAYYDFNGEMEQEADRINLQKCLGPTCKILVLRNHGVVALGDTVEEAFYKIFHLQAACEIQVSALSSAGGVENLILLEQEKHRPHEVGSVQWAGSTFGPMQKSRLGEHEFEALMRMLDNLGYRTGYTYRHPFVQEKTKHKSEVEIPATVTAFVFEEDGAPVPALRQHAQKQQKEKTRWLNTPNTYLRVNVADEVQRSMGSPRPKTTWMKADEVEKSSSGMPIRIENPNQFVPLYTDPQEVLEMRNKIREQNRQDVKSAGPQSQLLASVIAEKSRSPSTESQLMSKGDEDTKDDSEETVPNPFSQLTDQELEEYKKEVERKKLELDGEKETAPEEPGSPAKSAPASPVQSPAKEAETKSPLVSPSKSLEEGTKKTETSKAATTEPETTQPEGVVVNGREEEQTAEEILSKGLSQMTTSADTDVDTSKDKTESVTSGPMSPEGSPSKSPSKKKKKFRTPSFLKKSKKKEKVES
UniProt Q9UKG1: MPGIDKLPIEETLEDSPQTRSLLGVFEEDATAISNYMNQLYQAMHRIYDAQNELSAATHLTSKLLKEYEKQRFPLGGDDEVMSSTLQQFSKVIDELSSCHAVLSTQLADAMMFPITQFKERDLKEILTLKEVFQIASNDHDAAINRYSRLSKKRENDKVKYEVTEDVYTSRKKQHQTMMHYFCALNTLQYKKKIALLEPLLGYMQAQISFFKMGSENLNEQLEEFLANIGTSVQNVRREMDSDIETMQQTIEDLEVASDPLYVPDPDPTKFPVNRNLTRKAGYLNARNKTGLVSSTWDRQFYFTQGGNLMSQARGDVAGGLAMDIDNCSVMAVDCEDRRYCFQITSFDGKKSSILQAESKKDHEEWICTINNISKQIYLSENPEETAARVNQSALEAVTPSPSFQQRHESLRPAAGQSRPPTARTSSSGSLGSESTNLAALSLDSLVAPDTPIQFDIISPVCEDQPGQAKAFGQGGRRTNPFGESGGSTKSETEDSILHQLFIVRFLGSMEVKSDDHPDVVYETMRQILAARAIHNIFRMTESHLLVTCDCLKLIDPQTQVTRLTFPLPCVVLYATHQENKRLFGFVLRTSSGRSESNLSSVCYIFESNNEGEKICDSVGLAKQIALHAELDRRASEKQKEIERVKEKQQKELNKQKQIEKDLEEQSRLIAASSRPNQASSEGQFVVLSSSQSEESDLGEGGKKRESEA
UniProt P10398: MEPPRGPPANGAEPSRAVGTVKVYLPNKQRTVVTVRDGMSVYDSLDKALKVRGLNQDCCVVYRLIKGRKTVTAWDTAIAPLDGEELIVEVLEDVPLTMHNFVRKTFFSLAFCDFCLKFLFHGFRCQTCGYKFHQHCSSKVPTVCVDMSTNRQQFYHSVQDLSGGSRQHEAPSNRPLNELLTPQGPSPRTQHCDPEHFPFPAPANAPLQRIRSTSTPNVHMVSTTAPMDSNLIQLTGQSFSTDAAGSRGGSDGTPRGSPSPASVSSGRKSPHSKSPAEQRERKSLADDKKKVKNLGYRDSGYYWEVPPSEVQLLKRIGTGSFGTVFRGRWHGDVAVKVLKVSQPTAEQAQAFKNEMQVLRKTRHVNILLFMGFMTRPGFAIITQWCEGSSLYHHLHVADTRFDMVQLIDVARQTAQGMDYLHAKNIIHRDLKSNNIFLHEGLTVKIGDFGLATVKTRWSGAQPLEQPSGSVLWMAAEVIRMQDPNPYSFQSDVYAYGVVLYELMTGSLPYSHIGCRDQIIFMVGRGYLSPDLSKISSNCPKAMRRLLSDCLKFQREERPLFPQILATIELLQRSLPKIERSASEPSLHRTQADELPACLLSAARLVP
UniProt O75179: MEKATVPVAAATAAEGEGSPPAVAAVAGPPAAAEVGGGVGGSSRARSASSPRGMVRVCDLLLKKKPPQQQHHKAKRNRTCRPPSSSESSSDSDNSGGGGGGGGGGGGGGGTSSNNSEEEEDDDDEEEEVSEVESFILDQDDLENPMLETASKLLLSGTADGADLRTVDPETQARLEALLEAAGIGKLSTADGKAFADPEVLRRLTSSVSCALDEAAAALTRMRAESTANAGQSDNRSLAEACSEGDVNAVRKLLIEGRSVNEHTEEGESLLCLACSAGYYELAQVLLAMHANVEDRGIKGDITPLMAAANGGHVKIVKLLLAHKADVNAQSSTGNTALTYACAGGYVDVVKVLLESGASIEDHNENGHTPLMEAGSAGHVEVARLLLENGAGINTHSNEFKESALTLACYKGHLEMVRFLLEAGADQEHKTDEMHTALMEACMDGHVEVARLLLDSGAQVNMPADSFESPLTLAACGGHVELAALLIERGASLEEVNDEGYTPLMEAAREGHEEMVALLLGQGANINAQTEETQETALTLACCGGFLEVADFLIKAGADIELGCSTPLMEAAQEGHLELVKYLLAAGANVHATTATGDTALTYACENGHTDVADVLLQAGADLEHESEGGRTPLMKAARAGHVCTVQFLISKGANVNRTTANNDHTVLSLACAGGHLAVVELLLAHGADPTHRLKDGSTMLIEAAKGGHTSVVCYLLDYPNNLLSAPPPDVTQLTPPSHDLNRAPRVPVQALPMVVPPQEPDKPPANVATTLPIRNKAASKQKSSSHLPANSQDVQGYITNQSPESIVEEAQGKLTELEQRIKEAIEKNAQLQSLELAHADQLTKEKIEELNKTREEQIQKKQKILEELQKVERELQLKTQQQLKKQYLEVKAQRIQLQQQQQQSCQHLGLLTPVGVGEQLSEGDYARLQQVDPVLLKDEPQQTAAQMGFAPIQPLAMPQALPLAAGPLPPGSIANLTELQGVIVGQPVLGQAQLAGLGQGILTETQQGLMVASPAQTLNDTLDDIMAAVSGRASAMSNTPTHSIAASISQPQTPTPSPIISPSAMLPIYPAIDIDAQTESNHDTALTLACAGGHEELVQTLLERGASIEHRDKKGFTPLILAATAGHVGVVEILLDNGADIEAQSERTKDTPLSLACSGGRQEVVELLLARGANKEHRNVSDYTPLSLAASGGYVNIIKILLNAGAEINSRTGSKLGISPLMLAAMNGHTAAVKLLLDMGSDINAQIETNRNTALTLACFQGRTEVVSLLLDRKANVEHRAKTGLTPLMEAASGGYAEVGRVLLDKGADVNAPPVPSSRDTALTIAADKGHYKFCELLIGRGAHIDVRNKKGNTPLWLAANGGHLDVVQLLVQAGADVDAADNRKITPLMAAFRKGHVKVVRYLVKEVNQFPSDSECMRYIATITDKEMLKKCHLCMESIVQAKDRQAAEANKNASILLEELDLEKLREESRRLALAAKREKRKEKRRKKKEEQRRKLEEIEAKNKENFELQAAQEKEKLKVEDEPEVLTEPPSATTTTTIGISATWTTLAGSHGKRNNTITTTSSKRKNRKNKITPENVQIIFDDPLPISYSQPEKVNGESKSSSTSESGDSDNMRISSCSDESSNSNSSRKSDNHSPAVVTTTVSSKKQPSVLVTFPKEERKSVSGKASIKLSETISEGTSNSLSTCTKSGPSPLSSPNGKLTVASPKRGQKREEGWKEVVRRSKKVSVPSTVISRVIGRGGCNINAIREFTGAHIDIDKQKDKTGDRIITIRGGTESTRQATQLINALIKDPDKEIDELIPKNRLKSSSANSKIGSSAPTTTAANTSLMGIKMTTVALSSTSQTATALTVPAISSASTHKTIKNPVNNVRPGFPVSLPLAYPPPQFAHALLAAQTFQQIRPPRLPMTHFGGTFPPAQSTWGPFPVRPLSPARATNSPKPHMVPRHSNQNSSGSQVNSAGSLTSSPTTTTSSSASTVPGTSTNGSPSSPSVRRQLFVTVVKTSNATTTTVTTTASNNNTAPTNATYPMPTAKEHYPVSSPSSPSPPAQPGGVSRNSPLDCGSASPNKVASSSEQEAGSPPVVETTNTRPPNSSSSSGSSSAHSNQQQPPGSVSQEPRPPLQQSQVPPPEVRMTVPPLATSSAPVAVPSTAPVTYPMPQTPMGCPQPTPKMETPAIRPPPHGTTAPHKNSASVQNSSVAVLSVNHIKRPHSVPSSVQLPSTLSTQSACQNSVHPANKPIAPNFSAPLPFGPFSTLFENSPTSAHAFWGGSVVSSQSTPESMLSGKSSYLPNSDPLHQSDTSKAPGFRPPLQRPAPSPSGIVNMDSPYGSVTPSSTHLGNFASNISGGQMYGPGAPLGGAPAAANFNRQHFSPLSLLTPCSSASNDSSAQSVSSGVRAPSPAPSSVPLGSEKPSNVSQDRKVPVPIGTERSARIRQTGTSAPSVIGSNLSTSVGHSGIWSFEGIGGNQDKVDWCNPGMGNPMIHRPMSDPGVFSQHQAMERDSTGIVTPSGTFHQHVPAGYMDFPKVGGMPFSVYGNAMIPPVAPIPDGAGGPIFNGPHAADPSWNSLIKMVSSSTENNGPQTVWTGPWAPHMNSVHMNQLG
UniProt Q92667: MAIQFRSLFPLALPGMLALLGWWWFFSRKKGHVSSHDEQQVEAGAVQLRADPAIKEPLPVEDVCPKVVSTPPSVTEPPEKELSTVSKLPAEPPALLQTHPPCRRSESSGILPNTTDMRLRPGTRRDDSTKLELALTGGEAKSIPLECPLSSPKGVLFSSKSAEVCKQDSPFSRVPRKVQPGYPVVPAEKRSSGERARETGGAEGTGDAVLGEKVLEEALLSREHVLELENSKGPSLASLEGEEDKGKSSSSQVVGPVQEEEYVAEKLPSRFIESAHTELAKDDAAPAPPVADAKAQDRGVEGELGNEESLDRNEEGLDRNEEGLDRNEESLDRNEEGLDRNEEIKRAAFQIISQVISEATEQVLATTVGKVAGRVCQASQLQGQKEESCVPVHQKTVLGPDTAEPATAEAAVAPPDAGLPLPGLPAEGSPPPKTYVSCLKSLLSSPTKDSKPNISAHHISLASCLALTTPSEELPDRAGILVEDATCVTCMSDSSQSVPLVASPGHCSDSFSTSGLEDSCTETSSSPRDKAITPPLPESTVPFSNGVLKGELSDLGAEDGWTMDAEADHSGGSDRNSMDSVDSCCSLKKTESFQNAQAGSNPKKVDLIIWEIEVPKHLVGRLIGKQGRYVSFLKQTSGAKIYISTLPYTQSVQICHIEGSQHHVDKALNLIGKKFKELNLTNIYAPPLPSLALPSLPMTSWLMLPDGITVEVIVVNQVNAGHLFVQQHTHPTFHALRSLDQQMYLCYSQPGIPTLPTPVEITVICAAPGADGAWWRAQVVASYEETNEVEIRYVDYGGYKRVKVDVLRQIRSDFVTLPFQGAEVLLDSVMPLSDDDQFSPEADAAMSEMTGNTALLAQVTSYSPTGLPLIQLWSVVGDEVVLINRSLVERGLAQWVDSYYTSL
UniProt Q9Y587: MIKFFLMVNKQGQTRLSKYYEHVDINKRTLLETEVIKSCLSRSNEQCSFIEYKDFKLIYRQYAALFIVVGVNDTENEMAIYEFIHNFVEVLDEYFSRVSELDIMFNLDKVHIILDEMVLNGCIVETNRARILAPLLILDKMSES
UniProt P61966: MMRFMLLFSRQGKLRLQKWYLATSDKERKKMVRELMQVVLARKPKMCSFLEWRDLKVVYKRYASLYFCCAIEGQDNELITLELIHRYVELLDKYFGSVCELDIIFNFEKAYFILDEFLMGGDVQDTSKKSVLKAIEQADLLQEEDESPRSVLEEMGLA
UniProt Q9Y6B7: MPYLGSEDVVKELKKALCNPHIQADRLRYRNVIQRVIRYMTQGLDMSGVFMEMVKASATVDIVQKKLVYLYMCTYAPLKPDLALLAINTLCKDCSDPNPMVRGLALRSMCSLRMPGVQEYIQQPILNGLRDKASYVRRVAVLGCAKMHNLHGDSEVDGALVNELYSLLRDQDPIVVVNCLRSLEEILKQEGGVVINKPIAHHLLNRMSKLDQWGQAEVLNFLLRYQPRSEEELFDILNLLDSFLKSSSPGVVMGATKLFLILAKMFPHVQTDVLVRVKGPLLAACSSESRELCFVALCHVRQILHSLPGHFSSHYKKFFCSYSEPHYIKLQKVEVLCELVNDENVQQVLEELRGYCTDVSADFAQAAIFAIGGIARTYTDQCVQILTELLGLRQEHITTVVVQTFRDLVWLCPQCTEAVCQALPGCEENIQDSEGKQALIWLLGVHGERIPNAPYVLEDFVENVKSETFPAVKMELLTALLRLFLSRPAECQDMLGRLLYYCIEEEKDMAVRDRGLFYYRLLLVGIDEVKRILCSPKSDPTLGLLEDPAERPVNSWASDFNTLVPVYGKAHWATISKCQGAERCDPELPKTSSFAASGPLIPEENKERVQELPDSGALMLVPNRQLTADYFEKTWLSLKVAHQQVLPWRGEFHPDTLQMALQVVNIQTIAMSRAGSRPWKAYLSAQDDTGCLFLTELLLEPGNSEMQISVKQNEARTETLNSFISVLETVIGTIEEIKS

compound: COc1ccc(Cn2ccc3ccc(C(=O)NO)cc32)cc1; assay: dose-dependent thermal stabilisation call (2D-TPP, DLPTP, 10% FDR) (binary (1 = stabilised)); higher = stabilised by the compound; settings: system: HL-60 intact cells; concentration range 0.04-10 µM

Target	dose-dependent thermal stabilisation call
ARFGAP3 (UniProt Q9NP61)	inactive: 0
ADD2 (UniProt P35612)	inactive: 0
ALKBH4 (UniProt Q9NXW9)	inactive: 0
APPL1 (UniProt Q9UKG1)	inactive: 0
ACSS1 (UniProt Q9NUB1)	inactive: 0
ARAF (UniProt P10398)	inactive: 0
ARAP1 (UniProt Q96P48)	inactive: 0
ACSL5 (UniProt Q9ULC5)	inactive: 0
APOB (UniProt P04114)	inactive: 0
ARF6 (UniProt P62330)	inactive: 0
APBB1IP (UniProt Q7Z5R6)	inactive: 0
ARFGEF1 (UniProt Q9Y6D6)	inactive: 0
ANXA1 (UniProt P04083)	inactive: 0
ALCAM (UniProt Q13740)	inactive: 0
ANKRD17 (UniProt O75179)	inactive: 0
ARID4B (UniProt Q4LE39)	inactive: 0
ACOX3 (UniProt O15254)	active: 1
ADH5 (UniProt P11766)	inactive: 0
ARHGEF1 (UniProt Q92888)	inactive: 0

Taken from above:
In dose-dependent thermal stabilisation call, ARAP1 (UniProt Q96P48) has the entry inactive: 0
In dose-dependent thermal stabilisation call, ACSL5 (UniProt Q9ULC5) has the entry inactive: 0

(further entries)

Target	dose-dependent thermal stabilisation call
ARHGEF2 (UniProt Q92974)	inactive: 0
APOA1BP (UniProt Q8NCW5)	inactive: 0
ALDH1A1 (UniProt P00352)	active: 1
AP4E1 (UniProt Q9UPM8)	inactive: 0
ANKRD13D (UniProt Q6ZTN6)	inactive: 0
APOBEC3G (UniProt Q9HC16)	inactive: 0
ANXA4 (UniProt P09525)	inactive: 0
ALDH16A1 (UniProt Q8IZ83)	inactive: 0
AKAP1 (UniProt Q92667)	inactive: 0
ACLY (UniProt P53396)	active: 1
AP4S1 (UniProt Q9Y587)	inactive: 0
AMPD2 (UniProt Q01433)	inactive: 0
ADNP2 (UniProt Q6IQ32)	inactive: 0
AKNA (UniProt Q7Z591)	inactive: 0
AP1S1 (UniProt P61966)	inactive: 0
APOOL (UniProt Q6UXV4)	inactive: 0
AP4B1 (UniProt Q9Y6B7)	inactive: 0
AK2 (UniProt P54819)	inactive: 0
